# From the supplement of paper PMC11060735
# Values joined by “and” are separate entries in the source; they are usually repeats but may differ in a detail not shown here. Equal values may be shown once. Where a name gives a salt, the structure may show the parent alone. ± gives the standard deviation of the averaged measurements. Whole data set: some 1,800 compounds, median “GFP- (p16Ink4a-) cell count relative to negative-control wells” near 0.99, cut for the lowest 2% near 0.5. This is one part of the list.
# System: mouse p16Ink4a+/- lung fibroblasts (INKBRITE, bleomycin-injured)
# Test: GFP- (p16Ink4a-) cell count relative to negative-control wells (fold of vehicle); higher = more p16Ink4a- cells surviving
# Settings: 1 µM; 3 days
row,Compound,GFP-
1,CCOC(=O)[C@H](CCc1ccccc1)N[C@@H](C)C(=O)N1Cc2ccccc2C[C@H]1C(=O)O [Quinapril],1.19
2,Nc1nc(O)c2[nH]nnc2n1 [8-azaguanine],0.997
3,Cc1cncc(CN2CCC(=C3c4ccc(Cl)cc4CCc4cccnc43)CC2)c1 [Rupatadine],0.67
4,O=C1c2c(O)ccc(O)c2C(=O)c2c(NCCNCCO)ccc(NCCNCCO)c21 [Mitoxantrone],0.503
5,NC(=O)c1ccc(I)c([N+](=O)[O-])c1 [Iniparib],1.03 ± 0.12
6,CCOc1nc2cccc(C(=O)O)c2n1Cc1ccc(-c2ccccc2-c2noc(O)n2)cc1 [Azilsartan],0.936
7,N=C(N)/N=C(\N)N1CCOCC1 [Moroxydine Hydrochloride],1.09
8,O=c1cc(-c2ccc(O)cc2)oc2cc(O)cc(O)c12 [Apigenin],0.98
9,Cc1onc(-c2ccccc2Cl)c1C(=O)N[C@@H]1C(=O)N2[C@@H]1SC(C)(C)[C@@H]2C(=O)O [Cloxacillin],1.03
10,Cn1cnc(-c2cc3nccc(Oc4ccc(NC(=S)NC(=O)Cc5ccccc5)cc4F)c3s2)c1,0.696
11,CC(C(O)c1ccc(O)cc1)N1CCC(Cc2ccccc2)CC1 (stereo unspecified) [Ifenprodil],0.994
12,CN1CC[C@@H](c2c(O)cc(O)c3c(=O)cc(-c4ccccc4Cl)oc23)[C@@H]1CO,0.807
13,CC(C)c1cnn2c(NCc3ccccc3)cc(NCCCCCCN)nc12,0.834
14,O=C1c2c(O)cc(O)cc2O[C@H](c2cc(O)c(O)c(O)c2)[C@H]1O [Dihydromyricetin],1.01
15,CS(=O)(=O)Nc1ccc([N+](=O)[O-])cc1Oc1ccccc1 [Nimesulide],1.05
16,"Cc1ccc(-c2nn(C(C)(C)C)c3ncnc(N)c23)cc1 [1-Ter-Butyl-3-P-Tolyl-1h-Pyrazolo[3,4-D]Pyrimidin-4-Ylamine]",0.803
17,Cc1ccc(S(=O)(=O)/C=C/C#N)cc1,0.854
18,CCCCOc1cc(C(=O)OCCN(CC)CC)ccc1N [Oxybuprocaine],1.07
19,O=C(O)c1ccccc1O [Salicylic Acid],0.955
20,CC(C)(F)C[C@H](N[C@@H](c1ccc(-c2ccc(S(C)(=O)=O)cc2)cc1)C(F)(F)F)C(=O)NC1(C#N)CC1 [Odanacatib],1.03
21,COC(=O)[C@H](c1ccccc1Cl)N1CCc2sccc2C1 [Clopidogrel],1.11

# Reprinted at random: 2 compounds from above, in no set order.
row,Compound,GFP-
4,O=C1c2c(O)ccc(O)c2C(=O)c2c(NCCNCCO)ccc(NCCNCCO)c21 [Mitoxantrone],0.503
1,CCOC(=O)[C@H](CCc1ccccc1)N[C@@H](C)C(=O)N1Cc2ccccc2C[C@H]1C(=O)O [Quinapril],1.19

# Remaining list, next part.

row,Compound,GFP-
1,CN1c2ccccc2C(=O)N2CCc3c([nH]c4ccccc34)C21 (stereo unspecified) [Evodiamine],0.832
2,Cn1nnc2c(C(N)=O)ncn2c1=O [Temozolomide],0.853
3,C[C@H]1c2cccc(O)c2C(=O)C2=C(O)[C@]3(O)C(O)=C(C(N)=O)C(=O)[C@@H](N(C)C)[C@@H]3[C@@H](O)[C@@H]21 [Doxycycline],1.06 and 0.893
4,Nc1ccc(C(=O)O)c(O)c1 [Aminosalicylic Acid],0.978
5,CC(=O)Oc1cc2c(s1)CCN(C(C(=O)C1CC1)c1ccccc1F)C2 (stereo unspecified) [Prasugrel],0.995
6,"CN(C)CCCN1c2ccccc2Sc2ccc(Cl)cc21 [Chlorpromazine Hydrochloride, Chlorpromazine]",0.892
7,CN(C)CCN(Cc1ccccc1)c1ccccn1 [Tripelennamine],1.09
8,COc1c2ccoc2cc2oc(=O)ccc12 [Bergapten],1.08
9,Cc1ccc(S(=O)(=O)OCC(=O)Nc2ccc(C(=O)O)c(O)c2)cc1,0.999
10,CNC(=O)c1c(F)cccc1Nc1nc(Nc2cc3c(cc2OC)CCN3C(=O)CN(C)C)nc2[nH]ccc12,0.935
11,O=C(O)Cn1nnc(-c2cc(N3CCC(Oc4cc(F)ccc4Br)CC3)no2)n1,0.978
12,OCC(CO)N[C@H]1C[C@](O)(CO)[C@@H](O)[C@H](O)[C@H]1O [Voglibose],0.91
13,O=C1NC(=O)/C(=C/c2ccc(-c3ccc(F)cc3O)o2)S1,0.787
14,CCc1cc2c(cc1CC)CC(NC[C@H](O)c1ccc(O)c3nc(O)ccc13)C2 [Indacaterol],1.11
15,C[C@H](Cc1cc2c(c(C(N)=O)c1)N(CCCO)CC2)NCCOc1ccccc1OCC(F)(F)F [Silodosin],0.647
16,CCOC(=O)c1ccc(NC2CCCCC2)c(N)c1 [Ferrostatin-1 (Fer-1)],0.811
17,Oc1ccnc(O)n1 [Uracil],1.02
18,Cc1ccc(C(=O)c2cc(O)c(O)c([N+](=O)[O-])c2)cc1 [Tolcapone],0.983
19,C/C1=C2/N[C@H]([C@H](CC(N)=O)[C@@]2(C)CCC(=O)NC[C@@H](C)OP(=O)(O)O[C@H]2[C@@H](O)[C@@H](n3cnc4cc(C)c(C)cc43)O[C@@H]2CO)[C@]2(C)N=C(/C(C)=C3N=C(/C=C4N=C1[C@@H](CCC(N)=O)C\4(C)C)[C@@H](CCC(N)=O)[C@]\3(C)CC(N)=O)[C@@H](CCC(N)=O)[C@]2(C)CC(N)=O [Vitamin B12],0.847
20,CC(=O)Oc1cc(C(F)(F)F)ccc1C(=O)O [Triflusal],1.07
21,COC(=O)C1=C(C#N)N=C(C)/C(=C(\O)OC(C)C)C1c1cccc([N+](=O)[O-])c1 (stereo unspecified) [Nilvadipine],0.683

# Grouped by structure: those above with four or more nitrogen atoms.
row,Compound,GFP-
2,Nc1nc(O)c2[nH]nnc2n1 [8-azaguanine],0.997
4,O=C1c2c(O)ccc(O)c2C(=O)c2c(NCCNCCO)ccc(NCCNCCO)c21 [Mitoxantrone],0.503
6,CCOc1nc2cccc(C(=O)O)c2n1Cc1ccc(-c2ccccc2-c2noc(O)n2)cc1 [Azilsartan],0.936
7,N=C(N)/N=C(\N)N1CCOCC1 [Moroxydine Hydrochloride],1.09
10,Cn1cnc(-c2cc3nccc(Oc4ccc(NC(=S)NC(=O)Cc5ccccc5)cc4F)c3s2)c1,0.696
13,CC(C)c1cnn2c(NCc3ccccc3)cc(NCCCCCCN)nc12,0.834
16,"Cc1ccc(-c2nn(C(C)(C)C)c3ncnc(N)c23)cc1 [1-Ter-Butyl-3-P-Tolyl-1h-Pyrazolo[3,4-D]Pyrimidin-4-Ylamine]",0.803
2,Cn1nnc2c(C(N)=O)ncn2c1=O [Temozolomide],0.853
10,CNC(=O)c1c(F)cccc1Nc1nc(Nc2cc3c(cc2OC)CCN3C(=O)CN(C)C)nc2[nH]ccc12,0.935
11,O=C(O)Cn1nnc(-c2cc(N3CCC(Oc4cc(F)ccc4Br)CC3)no2)n1,0.978
19,C/C1=C2/N[C@H]([C@H](CC(N)=O)[C@@]2(C)CCC(=O)NC[C@@H](C)OP(=O)(O)O[C@H]2[C@@H](O)[C@@H](n3cnc4cc(C)c(C)cc43)O[C@@H]2CO)[C@]2(C)N=C(/C(C)=C3N=C(/C=C4N=C1[C@@H](CCC(N)=O)C\4(C)C)[C@@H](CCC(N)=O)[C@]\3(C)CC(N)=O)[C@@H](CCC(N)=O)[C@]2(C)CC(N)=O [Vitamin B12],0.847

# (listing goes on)

row,Compound,GFP-
1,CN(C)CCc1c[nH]c2ccc(CS(=O)(=O)N3CCCC3)cc12 [Almotriptan],1.27
2,N#CSc1cc(SC#N)c(N)nc1N,1.02
3,COc1cc(O)c2c(c1)C(=O)c1cc(C)cc(O)c1C2=O [Physcion],0.956
4,C[C@H](C(=O)O)c1ccc(-c2ccccc2)c(F)c1 [Flurbiprofen],0.969
5,CC#C[C@]1(O)CC[C@H]2[C@@H]3CCC4=CC(=O)CCC4=C3[C@@H](c3ccc(N(C)C)cc3)C[C@@]21C [Mifepristone],0.963
6,CN1CCC(CNc2ccc3ncc(-c4cccc(OC(F)(F)F)c4)n3n2)CC1,1 ± 0.028
7,CCCCCCOC(=O)/N=C(\N)c1ccc(NCc2nc3cc(C(=O)N(CCC(=O)OCC)c4ccccn4)ccc3n2C)cc1 [Dabigatran etexilate],1.02
8,O=C(O)[C@H]1O[C@H](Oc2cc3oc(-c4ccccc4)cc(=O)c3c(O)c2O)[C@H](O)[C@@H](O)[C@@H]1O [Baicalin],0.798
9,CC(C)(C)NS(=O)(=O)c1cncc(-c2cc(F)c3nc(N)nn3c2)c1,0.961
10,O=C1C(c2c(O)[nH]c3ccccc23)=Nc2ccccc21 [Indirubin],1.08
11,C[C@H](NC(=O)Cc1cc(F)cc(F)c1)C(=O)N[C@@H]1C(=O)N(C)c2ccccc2-c2ccccc21,0.862
12,Cc1cnc(Nc2ccc(N3CCN(C)CC3)cc2)nc1Nc1cccc(S(=O)(=O)NC(C)(C)C)c1,0.779 ± 0.037
13,Cc1c(C(=O)Nc2ccc(N3C[C@@H](C)O[C@@H](C)C3)nc2)cccc1-c1ccc(OC(F)(F)F)cc1 [Sonidegib],1.01
14,Nc1cc(C(Cl)=C(Cl)Cl)c(S(N)(=O)=O)cc1S(N)(=O)=O [Clorsulon],1.08
15,C[C@H](NC(=O)Cc1cc(F)cc(F)c1)C(=O)N[C@H](C(=O)OC(C)(C)C)c1ccccc1,0.859
16,C[C@H]1C[C@H]2[C@@H]3CCC4=CC(=O)C=C[C@]4(C)[C@H]3C(=O)C[C@]2(C)[C@@]1(O)C(=O)CO [Meprednisone],0.906
17,CN(C)c1nc(N(C)C)nc(N(C)C)n1 [Altretamine],1.1
18,C=CC(=O)Nc1ccc2ncnc(Nc3ccc(OCc4cccc(F)c4)c(Cl)c3)c2c1,0.979
19,Nc1cccc2c1C(=O)N(C1CCC(=O)NC1=O)C2=O (stereo unspecified) [Pomalidomide],0.988
20,Nc1nc(NCCNc2ncc(-n3ccnc3)c(-c3ccc(Cl)cc3Cl)n2)ccc1[N+](=O)[O-],0.874
21,COc1ccc(-c2ccc3ncc4c(c3c2)n(-c2ccc(N3CCNCC3)c(C(F)(F)F)c2)c(=O)n4C)cn1,0.4

row,Compound,GFP-
1,NNC(=O)c1ccncc1 [Isoniazid],1.07
2,c1ccc2[nH]c(-c3cscn3)nc2c1 [Thiabendazole],0.925
3,Cn1c(=O)c2c(ncn2CC2OCCO2)n(C)c1=O [Doxofylline],1.14
4,O=C1[O][Pt]2(<-[NH2][C@@H]3CCCC[C@H]3[NH2]->2)[O]C1=O [Oxaliplatin],0.641
5,O=C(N[C@H](CO)[C@H](O)c1ccc([N+](=O)[O-])cc1)C(Cl)Cl [Chloramphenicol],0.717
6,CCNC(=O)c1[nH]nc(-c2cc(Cl)c(O)cc2O)c1-c1ccc(OC)cc1,0.89
7,NC1(Cc2ccc(Cl)cc2)CCN(c2ncnc3[nH]ccc23)CC1,0.822
8,CCOC(=O)O[C@]1(C(=O)OCCl)CC[C@H]2[C@@H]3CCC4=CC(=O)C=C[C@]4(C)[C@H]3[C@@H](O)C[C@@]21C [Loteprednol etabonate],1.03
9,CCN(C(=O)c1c(O)c2c(Cl)cccc2n(C)c1=O)c1ccccc1 [Laquinimod],1.13
10,CC(C)/N=c1\cc2n(-c3ccc(Cl)cc3)c3ccccc3[nH]c-2c\c1=N/c1ccc(Cl)cc1 [Clofazimine],1.08
11,Cc1cc(C)nc(NS(=O)(=O)c2ccc(NC(=S)NC(=O)COc3ccc(Br)cc3Cl)cc2)n1,1.01
12,CN(C)C1CCN(C(=O)c2ccc(NC(=O)Nc3ccc(-c4nc(N5CCOCC5)nc(N5CCOCC5)n4)cc3)cc2)CC1,0.796
13,Clc1ccc(C(Cn2ccnc2)OCc2csc3c(Cl)cccc23)c(Cl)c1 (stereo unspecified) [Sertaconazole],1.05
14,CC(C)C[C@H](NC(=O)[C@H](Cc1ccccc1)NC(=O)c1cnccn1)B(O)O [Bortezomib],0.294
15,N#CCNC(=O)c1ccc(-c2ccnc(Nc3ccc(N4CCOCC4)cc3)n2)cc1,0.811 ± 0.046
16,Cc1ccc2c(=O)c3cccc(CC(=O)O)c3oc2c1C [Vadimezan],0.99
17,CC12CC3CC(C)(C1)CC(N)(C3)C2 [Memantine],0.978
18,Cc1cc(-c2ccc(CC(=O)Nc3ccc(-c4cccnc4)cc3)cc2)ccn1,1.04
